Assay results taken from PMC11263569.
Results are given in words; binding and its absence hold for the method and conditions named. Binding seen in cells or lysates may run through a third protein. Some binding calls cover weakened binding; strength is not graded here. For part of these data: Sequences can lack the tags named with a protein.

Chains of the proteins cited; added tags and fusions are not shown.
UniProt P35579: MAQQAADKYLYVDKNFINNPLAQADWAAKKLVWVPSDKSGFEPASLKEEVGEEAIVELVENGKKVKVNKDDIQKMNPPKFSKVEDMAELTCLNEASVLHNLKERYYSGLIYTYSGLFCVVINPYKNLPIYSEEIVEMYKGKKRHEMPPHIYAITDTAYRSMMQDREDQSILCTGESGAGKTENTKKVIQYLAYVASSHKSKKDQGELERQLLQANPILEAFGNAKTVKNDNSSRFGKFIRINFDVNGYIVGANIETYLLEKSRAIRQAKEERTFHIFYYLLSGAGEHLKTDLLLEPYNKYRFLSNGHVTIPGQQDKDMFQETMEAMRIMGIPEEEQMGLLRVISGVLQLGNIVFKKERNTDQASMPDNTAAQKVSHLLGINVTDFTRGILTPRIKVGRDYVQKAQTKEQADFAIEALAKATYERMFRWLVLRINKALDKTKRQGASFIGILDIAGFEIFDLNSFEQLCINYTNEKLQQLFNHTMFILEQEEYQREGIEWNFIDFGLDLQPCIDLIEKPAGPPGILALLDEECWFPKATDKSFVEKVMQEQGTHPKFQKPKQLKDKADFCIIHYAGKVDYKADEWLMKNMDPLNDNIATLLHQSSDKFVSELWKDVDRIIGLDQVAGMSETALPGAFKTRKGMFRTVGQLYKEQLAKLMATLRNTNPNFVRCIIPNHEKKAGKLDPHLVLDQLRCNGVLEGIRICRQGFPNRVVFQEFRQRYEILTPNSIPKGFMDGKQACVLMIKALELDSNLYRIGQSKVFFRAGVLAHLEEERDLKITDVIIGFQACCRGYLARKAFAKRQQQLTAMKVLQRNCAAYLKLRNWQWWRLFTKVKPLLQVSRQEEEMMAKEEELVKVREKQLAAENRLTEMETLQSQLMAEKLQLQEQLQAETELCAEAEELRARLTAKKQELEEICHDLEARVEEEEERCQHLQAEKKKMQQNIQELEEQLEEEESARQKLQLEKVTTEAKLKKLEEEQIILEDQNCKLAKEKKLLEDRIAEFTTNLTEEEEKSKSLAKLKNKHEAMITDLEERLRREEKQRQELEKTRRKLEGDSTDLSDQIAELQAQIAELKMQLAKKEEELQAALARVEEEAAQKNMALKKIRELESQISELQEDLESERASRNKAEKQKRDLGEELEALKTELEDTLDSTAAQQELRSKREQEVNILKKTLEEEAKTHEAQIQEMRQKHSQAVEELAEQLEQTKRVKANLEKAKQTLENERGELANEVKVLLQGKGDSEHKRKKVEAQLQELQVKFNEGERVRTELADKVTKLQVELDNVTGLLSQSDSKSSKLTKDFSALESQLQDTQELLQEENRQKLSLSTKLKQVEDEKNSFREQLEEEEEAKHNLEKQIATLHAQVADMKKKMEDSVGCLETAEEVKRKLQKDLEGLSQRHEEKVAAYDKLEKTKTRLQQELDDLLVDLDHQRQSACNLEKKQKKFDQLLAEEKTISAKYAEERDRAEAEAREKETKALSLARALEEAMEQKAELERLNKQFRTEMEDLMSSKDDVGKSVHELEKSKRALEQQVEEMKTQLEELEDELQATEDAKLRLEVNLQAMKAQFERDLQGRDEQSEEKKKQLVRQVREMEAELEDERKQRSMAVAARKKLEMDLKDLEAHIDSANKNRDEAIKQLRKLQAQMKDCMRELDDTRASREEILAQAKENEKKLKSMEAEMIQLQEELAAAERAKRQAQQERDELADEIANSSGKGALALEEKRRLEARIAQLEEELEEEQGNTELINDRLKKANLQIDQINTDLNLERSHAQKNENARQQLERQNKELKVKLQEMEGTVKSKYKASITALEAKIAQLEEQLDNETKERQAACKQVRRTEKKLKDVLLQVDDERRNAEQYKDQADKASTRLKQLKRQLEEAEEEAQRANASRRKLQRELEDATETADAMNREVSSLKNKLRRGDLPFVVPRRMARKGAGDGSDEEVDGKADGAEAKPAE
UniProt Q9UNE7: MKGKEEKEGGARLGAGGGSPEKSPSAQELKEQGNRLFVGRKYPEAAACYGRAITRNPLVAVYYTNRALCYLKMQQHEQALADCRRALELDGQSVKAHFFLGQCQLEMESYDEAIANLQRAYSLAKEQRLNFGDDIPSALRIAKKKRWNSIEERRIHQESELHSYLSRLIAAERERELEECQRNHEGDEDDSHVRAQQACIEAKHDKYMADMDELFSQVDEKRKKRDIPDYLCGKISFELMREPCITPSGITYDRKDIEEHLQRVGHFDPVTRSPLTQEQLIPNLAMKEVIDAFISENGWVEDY

What was measured:
MYH9^His, full length [1] = biological target: MYH9^His, full length (UniProt P35579); assay: co-IP; HEK-293T cells co-transfected; lysates immunoprecipitated with anti-His antibody (MYH9), immunoblot with anti-Flag (RGS19) or anti-Myc (STUB1) antibody
MYH9^His, full length [2] = biological target: MYH9^His, full length (UniProt P35579); assay: co-IP; indicated doses of purified RGS19 or STUB1 protein added to lysates of HEK-293T cells transfected with His-MYH9; immunoprecipitation with anti-His antibodies, Western blot; only the binder purified
[3] = biological target: T1, FLAG-RGS19 (regulator of G-protein signaling 19) (UniProt P49795); assay: co-IP; HEK-293T cells co-transfected; lysates immunoprecipitated with anti-Flag antibody (RGS19), immunoblot with anti-His antibody (MYH9)
T1 sequence: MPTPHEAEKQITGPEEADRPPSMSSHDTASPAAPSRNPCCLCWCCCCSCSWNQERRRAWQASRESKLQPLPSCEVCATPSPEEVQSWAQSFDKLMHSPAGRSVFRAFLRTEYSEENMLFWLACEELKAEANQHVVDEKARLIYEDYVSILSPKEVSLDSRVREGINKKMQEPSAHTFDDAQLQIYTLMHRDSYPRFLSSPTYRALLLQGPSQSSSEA

[4] = biological target: MYH9 (non-muscle myosin heavy chain IIA), endogenous in HCC cells (human (endogenous in Huh7, HCCLM3, HepG2)) (UniProt P35579); assay: co-IP; endogenous proteins in HCC cells (HepG2, HCCLM3, Huh7); also in cells transfected with vector or RGS19 plasmids, shNC or sh-RGS19, or with STUB1 knocked down or overexpressed
STUB1^His = STUB1^His (UniProt Q9UNE7); assay: pull-down; His pull-down in vitro with STUB1^His; source of MYH9 not told
GST-RGS19 = biological target: T2, GST-RGS19 (UniProt P49795); assay: pull-down; GST pull-down in vitro with purified GST-RGS19; source of MYH9 not told
T2 sequence: T1 sequence

[5] = biological target: T1, FLAG-RGS19 (regulator of G-protein signaling 19); assay: co-IP; Huh7 and HCCLM3 cells transfected with FLAG-RGS19; immunoprecipitation and Western blot
[6] = biological target: T3, RGS19, endogenous in HCC cells (human (endogenous in HepG2, HCCLM3, Huh7)) (UniProt P49795); assay: co-IP; endogenous proteins in HCC cells (HepG2, HCCLM3, Huh7); also in cells transfected with vector or RGS19 plasmids, shNC or sh-RGS19, or with STUB1 knocked down or overexpressed
T3 sequence: T1 sequence

“STUB1^Myc (from UniProt Q9UNE7 1-303) (enzyme)” was tested, and the binding (MYH9^His, full length [1]) was “binds”.

With “purified STUB1 protein (added to lysates, Fig. 4h) (from UniProt Q9UNE7 1-303) (enzyme)” the binding (MYH9^His, full length [2]) was “binds”.

With “MYH9^His, full length (from UniProt P35579 1-1960)” the binding [3] was “binds”.

In the case of “STUB1, endogenous in HCC cells (from UniProt Q9UNE7 1-303) (enzyme)”, the binding [4] is reported as “binds”.

In the case of “MYH9 used in the in vitro pull-down assays (from UniProt P35579 1-1960)”, the binding (STUB1^His) is reported as “binds” and the binding (GST-RGS19) is reported as “binds”.

“MYH9 (non-muscle myosin heavy chain IIA), endogenous in HCC cells (from UniProt P35579 1-1960)” was tested, and the binding [5] was “binds” and the binding [6] was “binds”.

B1: purified RGS19 protein (added to lysates, Fig. 4h) (protein, UniProt P49795 1-217)
chain: T1 sequence
In the case of B1, the binding (MYH9^His, full length [2]) is reported as “binds”.
